In PMC5215799:
These are yes or no findings as the source states them, for the method shown. Binding seen in cells or lysates may run through a third protein. Some entries that bind do so weakly or less than the wild type.

Target: gp96 (UniProt P08113)
Assay: co-IP; anti-gp96 precipitates from whole cell lysate resolved by SDS PAGE, GANAB, CAPZB and gp96 immunoblotted; IgG isotype control

CAPZB (from UniProt P47757 1-277) was tested, and the binding was “binds”.

B1: GANAB (protein, UniProt Q8BHN3 33-944)
chain: VDRSNFKTCDESSFCKRQRSIRPGLSPYRALLDTLQLGPDALTVHLIHEVTKVLLVLELQGLQKNMTRIRIDELEPRRPRYRVPDVLVADPPTARLSVSGRDDNSVELTVAEGPYKIILTAQPFRLDLLEDRSLLLSVNARGLMAFEHQRAPRVPQESKDPAEGNGAQPEATPGDGDKPEETQEKAEKDEPGAWEETFKTHSDSKPYGPTSVGLDFSLPGMEHVYGIPEHADSLRLKVTEGGEPYRLYNLDVFQYELNNPMALYGSVPVLLAHSFHRDLGIFWLNAAETWVDISSNTAGKTLFGKMLDYLQGSGETPQTDIRWMSESGIIDVFLMLGPSVFDVFRQYASLTGTQALPPLFSLGYHQSRWNYRDEADVLEVDQGFDDHNMPCDVIWLDIEHADGKRYFTWDPTRFPQPLNMLEHLASKRRKLVAIVDPHIKVDSGYRVHEELRNHGLYVKTRDGSDYEGWCWPGSASYPDFTNPRMRAWWSNMFSFDNYEGSAPNLYVWNDMNEPSVFNGPEVTMLKDAVHYGGWEHRDIHNIYGLYVHMATADGLIQRSGGIERPFVLSRAFFSGSQRFGAVWTGDNTAEWDHLKISIPMCLSLALVGLSFCGADVGGFFKNPEPELLVRWYQMGAYQPFFRAHAHLDTGRREPWLLASQYQDAIRDALFQRYSLLPFWYTLFYQAHKEGFPVMRPLWVQYPEDMSTFSIEDQFMLGDALLIHPVSDAGAHGVQVYLPGQEEVWYDIQSYQKHHGPQTLYLPVTLSSIPVFQRGGTIVPRWMRVRRSSDCMKDDPITLFVALSPQGTAQGELFLDDGHTFNYQTRHEFLLRRFSFSGSTLVSSSADPKGHLETPIWIERVVIMGAGKPAAVVLQTKGSPESRLSFQHDPETSVLILRKPGVSVASDWSIHLR
B1 was tested, and the binding was “binds”.
